The other results are listed elsewhere or left out. The data scatter; read single values as rough.
compound: ClCC(=O)N[C@H]1CCCc2ccccc12; experiment: log2 mean competition ratio of IA-DTB cysteine labelling (DMSO/compound) (log2 ratio); higher = stronger cysteine engagement by compound; conditions: 50 µM; treatment time: 4 h; cell line lysate: HEK293T
Description: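 IA-DTB competitive cysteine chemoproteomics in HEK293T RIPA lysate. Lysates were treated with compound 29 or 30 at 50 or 200 µM for 4 h, then IA-DTB (500 µM, 1 h), trypsin-digested, NeutrAvidin-enriched and analysed by diaPASEF. Competition ratio = intensity DMSO / intensity compound (n=4 treated, n=64 DMSO); binding: mean log2 CR ≥ 1 and p ≤ 0.05 plus QC filters. Target is the cysteine site.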

Amino acid sequences for entries named in this document (tags omitted). A change or cut given only in a name is not applied to a line headed by its entry. Residues count along the entry.
UniProt Q8IY22: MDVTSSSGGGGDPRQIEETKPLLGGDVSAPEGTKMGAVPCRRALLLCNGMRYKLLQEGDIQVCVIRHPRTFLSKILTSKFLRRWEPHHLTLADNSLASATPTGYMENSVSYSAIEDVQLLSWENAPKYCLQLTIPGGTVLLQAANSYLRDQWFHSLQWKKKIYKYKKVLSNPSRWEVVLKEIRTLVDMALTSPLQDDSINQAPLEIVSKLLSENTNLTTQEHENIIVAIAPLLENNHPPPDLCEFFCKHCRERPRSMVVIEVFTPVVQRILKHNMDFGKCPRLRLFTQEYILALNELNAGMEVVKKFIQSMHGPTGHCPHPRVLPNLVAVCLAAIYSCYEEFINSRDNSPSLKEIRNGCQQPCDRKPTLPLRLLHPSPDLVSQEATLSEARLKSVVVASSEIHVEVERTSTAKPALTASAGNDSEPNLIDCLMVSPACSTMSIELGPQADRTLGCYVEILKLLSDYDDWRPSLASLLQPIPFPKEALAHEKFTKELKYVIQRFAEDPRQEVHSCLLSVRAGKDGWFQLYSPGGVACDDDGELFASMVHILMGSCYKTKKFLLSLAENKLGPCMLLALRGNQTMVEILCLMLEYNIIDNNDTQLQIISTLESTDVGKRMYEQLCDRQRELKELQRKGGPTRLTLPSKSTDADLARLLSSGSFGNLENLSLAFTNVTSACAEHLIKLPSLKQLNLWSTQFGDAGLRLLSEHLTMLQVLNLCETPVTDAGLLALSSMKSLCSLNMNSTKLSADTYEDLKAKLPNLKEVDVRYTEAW
UniProt A5YKK6, whole entry, looked up: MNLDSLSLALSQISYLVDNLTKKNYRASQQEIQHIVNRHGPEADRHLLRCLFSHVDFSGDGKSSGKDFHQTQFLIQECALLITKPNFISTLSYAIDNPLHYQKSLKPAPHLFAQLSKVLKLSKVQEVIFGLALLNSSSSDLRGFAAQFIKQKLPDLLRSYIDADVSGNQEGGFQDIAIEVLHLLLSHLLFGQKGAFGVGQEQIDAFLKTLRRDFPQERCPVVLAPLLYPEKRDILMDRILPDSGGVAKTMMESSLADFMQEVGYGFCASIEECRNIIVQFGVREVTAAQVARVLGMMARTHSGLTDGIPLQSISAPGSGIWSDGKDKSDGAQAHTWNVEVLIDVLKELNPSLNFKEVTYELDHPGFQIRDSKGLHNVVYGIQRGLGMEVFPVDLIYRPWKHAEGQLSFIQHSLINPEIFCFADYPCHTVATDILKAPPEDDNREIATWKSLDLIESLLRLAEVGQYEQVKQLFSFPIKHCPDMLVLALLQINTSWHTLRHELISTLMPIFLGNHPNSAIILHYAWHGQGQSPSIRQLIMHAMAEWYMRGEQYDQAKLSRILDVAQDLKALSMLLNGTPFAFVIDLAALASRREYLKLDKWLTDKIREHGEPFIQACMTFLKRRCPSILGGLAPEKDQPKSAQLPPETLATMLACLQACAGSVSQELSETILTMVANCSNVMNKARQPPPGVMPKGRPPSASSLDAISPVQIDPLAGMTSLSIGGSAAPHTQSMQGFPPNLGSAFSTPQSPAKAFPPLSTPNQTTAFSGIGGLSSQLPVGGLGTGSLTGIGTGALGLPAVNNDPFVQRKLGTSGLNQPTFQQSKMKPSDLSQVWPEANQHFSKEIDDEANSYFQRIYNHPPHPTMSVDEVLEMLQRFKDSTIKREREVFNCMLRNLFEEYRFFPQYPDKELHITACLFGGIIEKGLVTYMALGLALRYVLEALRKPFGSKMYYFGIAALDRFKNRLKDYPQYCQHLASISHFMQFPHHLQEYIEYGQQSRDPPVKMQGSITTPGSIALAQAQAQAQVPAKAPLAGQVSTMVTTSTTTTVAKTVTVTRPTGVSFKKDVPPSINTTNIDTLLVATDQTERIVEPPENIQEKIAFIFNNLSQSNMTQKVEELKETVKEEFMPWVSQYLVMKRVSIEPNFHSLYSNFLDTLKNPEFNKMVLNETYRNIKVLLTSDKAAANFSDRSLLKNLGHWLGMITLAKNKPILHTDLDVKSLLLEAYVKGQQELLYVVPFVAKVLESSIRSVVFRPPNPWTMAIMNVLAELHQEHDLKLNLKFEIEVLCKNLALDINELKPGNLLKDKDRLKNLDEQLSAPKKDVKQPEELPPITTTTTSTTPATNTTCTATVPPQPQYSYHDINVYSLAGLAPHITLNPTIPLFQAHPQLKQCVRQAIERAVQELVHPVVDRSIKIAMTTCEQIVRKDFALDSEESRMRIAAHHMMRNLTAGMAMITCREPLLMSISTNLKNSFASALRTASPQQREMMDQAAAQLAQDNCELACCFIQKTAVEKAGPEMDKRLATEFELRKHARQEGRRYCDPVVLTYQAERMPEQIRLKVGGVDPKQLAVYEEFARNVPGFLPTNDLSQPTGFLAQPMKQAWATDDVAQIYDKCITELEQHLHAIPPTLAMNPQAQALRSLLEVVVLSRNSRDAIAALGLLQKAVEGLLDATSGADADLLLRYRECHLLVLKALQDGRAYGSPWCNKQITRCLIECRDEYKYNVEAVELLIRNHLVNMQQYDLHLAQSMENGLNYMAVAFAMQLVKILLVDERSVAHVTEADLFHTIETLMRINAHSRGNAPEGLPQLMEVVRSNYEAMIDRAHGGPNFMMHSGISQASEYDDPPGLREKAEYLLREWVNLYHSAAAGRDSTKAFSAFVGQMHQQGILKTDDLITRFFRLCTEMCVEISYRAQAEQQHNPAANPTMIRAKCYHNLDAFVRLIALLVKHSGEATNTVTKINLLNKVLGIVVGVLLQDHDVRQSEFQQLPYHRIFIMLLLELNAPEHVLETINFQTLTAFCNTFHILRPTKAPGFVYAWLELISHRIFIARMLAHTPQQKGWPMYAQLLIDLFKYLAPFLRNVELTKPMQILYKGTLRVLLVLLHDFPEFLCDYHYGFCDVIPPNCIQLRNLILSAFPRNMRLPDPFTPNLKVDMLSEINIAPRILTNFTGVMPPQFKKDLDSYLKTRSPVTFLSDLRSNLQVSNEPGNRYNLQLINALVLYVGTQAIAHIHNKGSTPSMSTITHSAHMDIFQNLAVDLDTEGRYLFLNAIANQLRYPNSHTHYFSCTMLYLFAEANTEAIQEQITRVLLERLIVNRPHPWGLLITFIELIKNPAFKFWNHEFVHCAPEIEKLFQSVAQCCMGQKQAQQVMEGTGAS
UniProt O15111: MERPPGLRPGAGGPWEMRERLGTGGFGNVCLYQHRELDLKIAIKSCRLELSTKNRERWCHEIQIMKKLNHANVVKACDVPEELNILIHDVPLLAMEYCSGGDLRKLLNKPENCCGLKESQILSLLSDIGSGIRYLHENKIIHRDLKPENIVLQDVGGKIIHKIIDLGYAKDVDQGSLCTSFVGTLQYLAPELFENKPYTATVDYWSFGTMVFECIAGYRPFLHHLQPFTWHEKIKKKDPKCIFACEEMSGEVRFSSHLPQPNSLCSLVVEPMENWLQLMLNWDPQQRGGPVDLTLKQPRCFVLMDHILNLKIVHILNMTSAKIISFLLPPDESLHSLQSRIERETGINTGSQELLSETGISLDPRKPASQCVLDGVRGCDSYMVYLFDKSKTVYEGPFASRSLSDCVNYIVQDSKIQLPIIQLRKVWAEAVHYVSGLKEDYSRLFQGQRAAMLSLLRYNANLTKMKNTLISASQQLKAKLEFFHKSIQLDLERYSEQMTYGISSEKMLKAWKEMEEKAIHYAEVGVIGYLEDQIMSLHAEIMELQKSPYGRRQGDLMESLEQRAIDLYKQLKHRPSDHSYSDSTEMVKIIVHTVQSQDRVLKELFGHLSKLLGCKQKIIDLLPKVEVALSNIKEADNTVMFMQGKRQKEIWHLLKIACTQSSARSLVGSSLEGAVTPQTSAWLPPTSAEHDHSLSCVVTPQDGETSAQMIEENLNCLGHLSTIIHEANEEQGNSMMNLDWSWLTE
UniProt Q9H6Q4, 429-456: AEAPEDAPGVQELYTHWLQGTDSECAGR
UniProt Q9UBF2: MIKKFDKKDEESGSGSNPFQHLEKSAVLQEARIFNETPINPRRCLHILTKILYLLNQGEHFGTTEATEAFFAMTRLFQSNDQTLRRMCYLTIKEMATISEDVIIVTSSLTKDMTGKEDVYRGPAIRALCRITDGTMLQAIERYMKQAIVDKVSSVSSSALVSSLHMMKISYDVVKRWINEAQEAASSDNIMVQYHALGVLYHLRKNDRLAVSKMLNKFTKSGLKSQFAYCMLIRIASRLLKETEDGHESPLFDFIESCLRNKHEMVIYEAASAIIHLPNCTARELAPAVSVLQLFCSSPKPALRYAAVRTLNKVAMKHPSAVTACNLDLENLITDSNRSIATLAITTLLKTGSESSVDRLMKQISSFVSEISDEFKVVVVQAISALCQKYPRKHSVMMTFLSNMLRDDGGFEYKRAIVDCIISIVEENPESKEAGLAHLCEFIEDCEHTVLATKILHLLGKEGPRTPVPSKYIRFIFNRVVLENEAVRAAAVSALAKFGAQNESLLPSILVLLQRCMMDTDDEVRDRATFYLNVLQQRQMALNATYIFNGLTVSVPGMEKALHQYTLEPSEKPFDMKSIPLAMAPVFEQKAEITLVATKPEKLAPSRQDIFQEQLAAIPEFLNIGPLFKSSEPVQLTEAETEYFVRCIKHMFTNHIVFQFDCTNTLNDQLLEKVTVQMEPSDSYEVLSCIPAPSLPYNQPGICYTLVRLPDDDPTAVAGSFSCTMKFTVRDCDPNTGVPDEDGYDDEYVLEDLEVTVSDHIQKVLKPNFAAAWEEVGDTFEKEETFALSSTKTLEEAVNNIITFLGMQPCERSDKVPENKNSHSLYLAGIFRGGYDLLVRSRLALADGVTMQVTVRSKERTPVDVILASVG
UniProt Q9H9A5, 319-340: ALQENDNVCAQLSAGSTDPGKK
UniProt Q96D53: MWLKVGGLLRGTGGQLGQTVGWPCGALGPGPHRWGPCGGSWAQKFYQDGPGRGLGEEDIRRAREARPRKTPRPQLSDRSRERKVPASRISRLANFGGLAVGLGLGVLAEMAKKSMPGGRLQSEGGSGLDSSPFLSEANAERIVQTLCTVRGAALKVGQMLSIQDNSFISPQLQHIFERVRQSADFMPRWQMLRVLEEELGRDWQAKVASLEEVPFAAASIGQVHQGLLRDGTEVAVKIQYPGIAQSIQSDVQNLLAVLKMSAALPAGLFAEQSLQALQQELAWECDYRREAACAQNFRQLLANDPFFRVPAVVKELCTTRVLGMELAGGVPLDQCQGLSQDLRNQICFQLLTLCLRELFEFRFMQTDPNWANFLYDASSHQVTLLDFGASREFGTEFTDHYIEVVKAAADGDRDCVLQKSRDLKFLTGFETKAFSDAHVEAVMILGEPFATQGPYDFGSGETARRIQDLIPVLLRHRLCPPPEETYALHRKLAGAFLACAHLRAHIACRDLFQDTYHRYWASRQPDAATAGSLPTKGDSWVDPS
UniProt Q9H9E3: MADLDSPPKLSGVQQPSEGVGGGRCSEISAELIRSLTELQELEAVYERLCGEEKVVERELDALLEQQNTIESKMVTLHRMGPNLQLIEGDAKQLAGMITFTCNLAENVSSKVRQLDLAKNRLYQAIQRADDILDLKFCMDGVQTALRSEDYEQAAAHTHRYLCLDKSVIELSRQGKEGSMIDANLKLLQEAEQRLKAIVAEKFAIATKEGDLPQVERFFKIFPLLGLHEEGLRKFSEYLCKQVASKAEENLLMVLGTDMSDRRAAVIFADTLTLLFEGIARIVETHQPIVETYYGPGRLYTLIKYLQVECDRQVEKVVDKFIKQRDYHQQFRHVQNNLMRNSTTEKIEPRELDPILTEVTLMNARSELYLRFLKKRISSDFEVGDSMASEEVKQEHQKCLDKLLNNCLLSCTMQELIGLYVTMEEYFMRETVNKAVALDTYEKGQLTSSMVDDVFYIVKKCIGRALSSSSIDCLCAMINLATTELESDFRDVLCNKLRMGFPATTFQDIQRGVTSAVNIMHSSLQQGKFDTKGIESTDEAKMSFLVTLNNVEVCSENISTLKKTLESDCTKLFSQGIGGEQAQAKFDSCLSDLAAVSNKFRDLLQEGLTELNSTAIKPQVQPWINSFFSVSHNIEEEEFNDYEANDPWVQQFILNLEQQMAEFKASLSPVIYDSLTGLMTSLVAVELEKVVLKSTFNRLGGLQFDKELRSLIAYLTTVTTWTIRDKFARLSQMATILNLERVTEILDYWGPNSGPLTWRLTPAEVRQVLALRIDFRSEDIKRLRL
UniProt Q9NZJ6: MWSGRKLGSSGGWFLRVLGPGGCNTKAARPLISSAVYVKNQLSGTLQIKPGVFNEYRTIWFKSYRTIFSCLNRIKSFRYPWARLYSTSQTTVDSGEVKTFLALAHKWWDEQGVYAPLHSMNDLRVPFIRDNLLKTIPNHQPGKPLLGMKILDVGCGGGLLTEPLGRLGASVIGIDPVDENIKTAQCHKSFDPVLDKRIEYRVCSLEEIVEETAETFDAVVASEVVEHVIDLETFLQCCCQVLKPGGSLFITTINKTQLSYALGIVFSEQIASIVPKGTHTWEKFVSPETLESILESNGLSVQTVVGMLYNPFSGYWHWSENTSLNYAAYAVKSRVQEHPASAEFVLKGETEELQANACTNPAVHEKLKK

| Target | log2 mean competition ratio |
| --- | --- |
| CHD9 C1705 (UniProt Q3L8U1) | -0.29 |
| CMIP C40 (UniProt Q8IY22) | 0.377 |
| CNOT1 C1706 (UniProt A5YKK6) | 0.174 |
| COMTD1 C231 (UniProt Q86VU5) | 0.421 |
| CHUK C371 (UniProt O15111) | 0.113 |
| COG8 C225 (UniProt Q96MW5) | 6.38e-05 |
| CLUH C732 | -0.552 |
| CLCC1 C279 (UniProt Q96S66) | 0.0155 |
| CIAO3 C453 (UniProt Q9H6Q4) | 1.46 |
| CNBP C158 (UniProt P62633) | 0.429 |
| CKAP2L C44 (UniProt Q8IYA6) | -0.157 |
| CHUK C406 (UniProt O15111) | 0.163 |
| COL4A2 C42 (UniProt P08572) | 0.178 |
| COPB2 C56 (UniProt P35606) | -0.511 |
| COPG2 C44 (UniProt Q9UBF2) | 0.624 |
| CNOT10 C327 (UniProt Q9H9A5) | 0.0415 |
| CLTCL1 C1205 (UniProt P53675) | -0.362 |
| COQ8B C415 (UniProt Q96D53) | 0.028 |
| COG4 C240 (UniProt Q9H9E3) | 0.267 |
| COQ3 C155 (UniProt Q9NZJ6) | -0.338 |

same assay, conditions: 200 µM; treatment time: 4 h; cell line lysate: HEK293T

| Target | log2 mean competition ratio |
| --- | --- |
| CHD9 C1705 (UniProt Q3L8U1) | 0.0868 |
| CMIP C40 (UniProt Q8IY22) | 0.352 |
| CNOT1 C1706 (UniProt A5YKK6) | 0.0392 |
| COMTD1 C231 (UniProt Q86VU5) | -0.0533 |
| CHUK C371 (UniProt O15111) | 0.292 |
| COG8 C225 (UniProt Q96MW5) | -0.161 |
| CLUH C732 | 0.0378 |
| CLCC1 C279 (UniProt Q96S66) | 0.03 |
| CIAO3 C453 (UniProt Q9H6Q4) | -0.339 |
| CNBP C158 (UniProt P62633) | -0.279 |
| CKAP2L C44 (UniProt Q8IYA6) | -0.298 |
| CHUK C406 (UniProt O15111) | 0.022 |
| COL4A2 C42 (UniProt P08572) | 0.201 |
| CLTC C1528 (UniProt Q00610) | 0.239 |
| COPB2 C56 (UniProt P35606) | -0.0571 |
| COPG2 C44 (UniProt Q9UBF2) | -0.149 |
| CNOT10 C327 (UniProt Q9H9A5) | -0.277 |
| CLTCL1 C1205 (UniProt P53675) | 0.19 |
| COQ8B C415 (UniProt Q96D53) | 0.106 |
| COG4 C240 (UniProt Q9H9E3) | -0.179 |
| COQ3 C155 (UniProt Q9NZJ6) | 0.299 |
